Where a chain is given by its changes, count along the chain named. Numbers in names are those of the source. No constants are given. Whether binding was seen depends on the method and setting. Binding seen in cells or lysates may run through a third protein. Some results given as binding are weak or reduced against the parent protein; the word gives no strength. Tags and fused reporters may be left off the sequences shown. One block for each binder: values may come before it.
Key:
[1] = biological target: T1, Flag-RIG-I (retinoic acid-inducible gene I, wild type) (UniProt O95786); assay: co-IP; HEK293T cells co-transfected; lysis buffer 50 mM Tris-HCl pH 7.4, 150 mM NaCl, 10% glycerol, 1% Nonidet P-40, 0.1% SDS, 2 mM Na2EDTA; lysates immunoprecipitated with anti-Flag antibody (overnight, 4 °C, Protein A+G agarose), immunoblotted with anti-HA antibody
T1 sequence: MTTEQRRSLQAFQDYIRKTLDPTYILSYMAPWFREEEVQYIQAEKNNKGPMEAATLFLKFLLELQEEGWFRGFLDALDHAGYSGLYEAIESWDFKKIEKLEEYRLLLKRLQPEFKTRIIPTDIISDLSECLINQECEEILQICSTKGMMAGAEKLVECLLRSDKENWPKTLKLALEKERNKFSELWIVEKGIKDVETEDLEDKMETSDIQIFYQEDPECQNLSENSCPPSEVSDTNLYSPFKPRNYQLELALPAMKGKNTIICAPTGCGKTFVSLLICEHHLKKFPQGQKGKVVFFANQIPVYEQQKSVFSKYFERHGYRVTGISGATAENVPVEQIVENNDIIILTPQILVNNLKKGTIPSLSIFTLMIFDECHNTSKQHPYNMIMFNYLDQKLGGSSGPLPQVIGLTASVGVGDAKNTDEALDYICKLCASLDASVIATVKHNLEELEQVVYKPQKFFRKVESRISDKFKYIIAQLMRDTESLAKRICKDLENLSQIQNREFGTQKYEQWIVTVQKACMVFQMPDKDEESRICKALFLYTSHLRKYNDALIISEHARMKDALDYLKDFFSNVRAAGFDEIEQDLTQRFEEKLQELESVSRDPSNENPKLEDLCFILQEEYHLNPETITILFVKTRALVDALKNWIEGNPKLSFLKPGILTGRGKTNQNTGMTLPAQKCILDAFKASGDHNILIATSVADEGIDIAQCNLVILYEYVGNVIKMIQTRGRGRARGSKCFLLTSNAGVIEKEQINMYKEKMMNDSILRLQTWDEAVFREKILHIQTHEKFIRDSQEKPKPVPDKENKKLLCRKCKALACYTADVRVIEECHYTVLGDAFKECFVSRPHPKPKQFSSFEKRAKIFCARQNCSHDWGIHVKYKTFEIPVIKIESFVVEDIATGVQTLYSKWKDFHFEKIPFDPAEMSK

[2] = biological target: T2, HA-RIG-I (UniProt O95786); assay: co-IP; HEK293T cells co-transfected with HA-RIG-I, Flag-IPS-1 and increasing amounts of Myc-USP15 or its mutants, infected with SEV 24 h later; lysates immunoprecipitated with anti-HA antibody, immunoblotted with anti-Flag and anti-Myc antibodies
T2 sequence: T1 sequence

binding [1]: binds
B1: HA-USP15-WT (ubiquitin-specific protease 15, wild type) (enzyme, UniProt Q9Y4E8-2 1-952)
chain: MAEGGAADLDTQRSDIATLLKTSLRKGDTWYLVDSRWFKQWKKYVGFDSWDKYQMGDQNVYPGPIDNSGLLKDGDAQSLKEHLIDELDYILLPTEGWNKLVSWYTLMEGQEPIARKVVEQGMFVKHCKVEVYLTELKLCENGNMNNVVTRRFSKADTIDTIEKEIRKIFSIPDEKETRLWNKYMSNTFEPLNKPDSTIQDAGLYQGQVLVIEQKNEDGTWPRGPSTPNVKNSNYCLPSYTAYKNYDYSEPGRNNEQPGLCGLSNLGNTCFMNSAIQCLSNTPPLTEYFLNDKYQEELNFDNPLGMRGEIAKSYAELIKQMWSGKFSYVTPRAFKTQVGRFAPQFSGYQQQDCQELLAFLLDGLHEDLNRIRKKPYIQLKDADGRPDKVVAEEAWENHLKRNDSIIVDIFHGLFKSTLVCPECAKISVTFDPFCYLTLPLPMKKERTLEVYLVRMDPLTKPMQYKVVVPKIGNILDLCTALSALSGIPADKMIVTDIYNHRFHRIFAMDENLSSIMERDDIYVFEININRTEDTEHVIIPVCLREKFRHSSYTHHTGSSLFGQPFLMAVPRNNTEDKLYNLLLLRMCRYVKISTETEETEGSLHCCKDQNINGNGPNGIHEEGSPSEMETDEPDDESSQDQELPSENENSQSEDSVGGDNDSENGLCTEDTCKGQLTGHKKRLFTFQFNNLGNTDINYIKDDTRHIRFDDRQLRLDERSFLALDWDPDLKKRYFDENAAEDFEKHESVEYKPPKKPFVKLKDCIELFTTKEKLGAEDPWYCPNCKEHQQATKKLDLWSLPPVLVVHLKRFSYSRYMRDKLDTLVDFPINDLDMSEFLINPNAGPCRYNLIAVSNHYGGMGGGHYTAFAKNKDDGKWYYFDDSSVSTASEDQIVSKAAYVLFYQRQDTFSGTGFFPLDRETKGASAATGIPLESDEDSNDNDNDIENENCMHTN

binding [2]: binds
B2: Myc-USP15-H862A (enzyme, UniProt Q9Y4E8-2 1-952)
chain: B1 chain with H862A

binding [2]: binds
B3: Myc-USP15-C269A (enzyme, UniProt Q9Y4E8-2 1-952)
chain: B1 chain with C269A

binding [1]: binds
B4: HA-USP15-H862A (enzyme, UniProt Q9Y4E8-2 1-952)
chain: B1 chain with H862A

binding [1]: binds
B5: HA-USP15-C269A (enzyme, UniProt Q9Y4E8-2 1-952)
chain: B1 chain with C269A

binding [2]: binds
B6: Myc-USP15-WT (enzyme, UniProt Q9Y4E8-2 1-952)
chain: B1 chain
